We go through one substance from doi:10.1101/2025.04.11.648407.

Chains of the proteins cited; added tags and fusions are not shown. Lines headed by an entry give the natural chain unless they say otherwise; changes in a name come on top.
UniProt O95214: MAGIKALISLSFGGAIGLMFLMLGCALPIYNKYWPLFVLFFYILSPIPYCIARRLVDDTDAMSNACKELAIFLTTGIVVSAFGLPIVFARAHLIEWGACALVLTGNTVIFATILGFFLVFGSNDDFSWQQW

Like-named read-outs stand apart in the source and are kept apart here. These are yes or no findings as the source states them, for the method shown. In cells and extracts the contact can be indirect. Binding calls can cover weak binding; strength is not graded here.

Experiment [1] addresses LEPROTL1 R90A (human) (UniProt O95214). In words: co-IP.
Experiment [2] has the same target. In words: co-IP. The source holds these as a separate data set.

As to “EGFR (from UniProt P00533 25-1210) (receptor)”, the binding entry with LEPROTL1 R90A (human) [1] and in the experiment with LEPROTL1 R90A (human) [2] was “binds” in each case.
